Measured values reported in patent publication US7238795B2, “Nucleic acid binding compounds containing pyrazolo[3,4-d]pyrimidine analogues of purin-2,6-diamine and their uses” (Roche Molecular Systems, Inc., priority 2000, dated 2007).
Some of these results come from one statement about several compounds together.

Test system: complementary oligodeoxyribonucleotide strand (antiparallel duplex)
Test: Tm values and thermodynamic data of antiparallel DNA-DNA duplexes (UV melting curves, Meltwin 3.0)
Type: binding
Settings: incorporated opposite to the pyrimidine nucleosides 3a-c

SMILES | Tm-increase per incorporated residue
Nc1nc(N)c2c(I)nn([C@H]3C[C@H](O)[C@@H](CO)O3)c2n1 [2c, 1-(2-Deoxy-β-D-erythro-pentofuranosyl)-3-iodo-1H-pyrazolo[3,4-d]-pyrimidin-4,6-diamine] | 4-5 °
Nc1nc(N)c2c(Br)nn([C@H]3C[C@H](O)[C@@H](CO)O3)c2n1 [2b, 3-Bromo-1-[2-deoxy-β-D-erythro-pentofuranosyl]-1H-pyrazolo[3,4-d]-pyrimidin-4,6-diamine] | 4-5 °
